Taken from: PubChem BioAssay AID1159584 (Peter MacCallum Cancer Centre, 2016)
Here is one part, drawn at random, of about 18,000 reagents tested. Further read-outs or replicates are left out here. No sequences are given here. Not given: the amount of reagent, the time to read-out.

Aim: 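Genes whose loss is lethal only together with E-cadherin loss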 (primary screen)
Cell system: human MCF10A breast epithelial cells, parental and CDH1-null
Reagent: siRNA against human genes
Measurement: 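ATP luminescence (CellTiter-Glo) viability per line relative to mean mock wells over all plates, and the ratio of CDH1-null to parental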
Reading the numbers: CDH1-null / parental viability ratio: higher = CDH1-null cells survive relatively better than parental; CDH1-null viability vs mock: higher = more viable CDH1-null cells
Units: CDH1-null viability vs mock in fraction of mock

With A1CF (GeneID 29974), how do the results read?
CDH1-null / parental viability ratio: 0.91; CDH1-null viability vs mock: 1.04

Which result is listed for SLC51A (GeneID 200931)?
CDH1-null / parental viability ratio: 1.09; CDH1-null viability vs mock: 0.85

For INSL5 (GeneID 10022), what does the deposit list?
CDH1-null / parental viability ratio: 1.14; CDH1-null viability vs mock: 1

What is on record for MRPL57 (GeneID 78988)?
CDH1-null / parental viability ratio: 1.28; CDH1-null viability vs mock: 1

With GTF3C1 (GeneID 2975), how do the results read?
CDH1-null / parental viability ratio: 1.14; CDH1-null viability vs mock: 1.12

Which result is listed for GSKIP (GeneID 51527)?
CDH1-null / parental viability ratio: 0.83; CDH1-null viability vs mock: 0.34

With DHRS12 (GeneID 79758), what was measured?
CDH1-null / parental viability ratio: 1.1; CDH1-null viability vs mock: 0.79

What did the screen give for AGK (GeneID 55750)?
CDH1-null / parental viability ratio: 0.91; CDH1-null viability vs mock: 0.84

What did the screen give for TRIML2 (GeneID 205860)?
CDH1-null / parental viability ratio: 1.04; CDH1-null viability vs mock: 0.96

Which result is listed for TMPO (GeneID 7112)?
CDH1-null / parental viability ratio: 0.98; CDH1-null viability vs mock: 0.78

With RTL5 (GeneID 340526), what does the deposit list?
CDH1-null / parental viability ratio: 1.22; CDH1-null viability vs mock: 0.98

What is on record for FIBP (GeneID 9158)?
CDH1-null / parental viability ratio: 0.94; CDH1-null viability vs mock: 0.84

How did the screen score RPS6 (GeneID 6194)?
CDH1-null / parental viability ratio: 0.81; CDH1-null viability vs mock: 0.26

Which result is listed for PACRG (GeneID 135138)?
CDH1-null / parental viability ratio: 0.77; CDH1-null viability vs mock: 0.27

2 entries from above, set out differently:
RPS6 (GeneID 6194)
- CDH1-null / parental viability ratio: 0.81
- CDH1-null viability vs mock: 0.26

PACRG (GeneID 135138)
- CDH1-null / parental viability ratio: 0.77
- CDH1-null viability vs mock: 0.27
